These results are taken from patent publication US20260079169A1, “VOLATILE ORGANIC COMPOUNDS AS MARKERS FOR CELLULAR COMMUNICATION” (Technion Research and Development Foundation Limited, priority 2020, published 2026).

Some results come without the dose or concentration used.

In data set [1] the test system is A549, H1299, H1975 human lung cancer lines and BEAS-2B normal cell line, each cultured alone. The data set is described as follows: VOCs headspace analysis (ITEX GC-MS) of mono-culture groups (Format-1), bulk cell samples 1×10^4 cells. To be noted: for VOC level in headspace, area under curve (AUC) normalized by STD AUC: bulk 1 × 10^4 cell. It counts as cell-based.

Data set [2] has as its system different-cell pairs of BEAS-2B, A549, H1299, H1975 without physical contact under a mutual headspace. The data set is described as follows: VOCs headspace analysis (ITEX GC-MS) of different-cell pair co-culture headspace groups (Format-3), bulk cell samples. It counts as cell-based, human. To be noted: for VOC level in headspace, area under curve (AUC) normalized by STD AUC: bulk 1 × 10^4 cell.

For the compound `CCCCCCC(C)CC(C)C` (centres unmarked) [VOC50], the “VOC level in headspace, area under curve (AUC) normalized by STD AUC” value (“VOC level … (AUC) normalized by STD AUC” below) turned out to be 5.192 in data set [1] (A (BEAS-2B) mono-culture); 0 in data set [1] (B (A549) mono-culture); 0 in data set [1] (C (H1299) mono-culture); 6.742 in data set [1] (D (H1975) mono-culture); 5.9098 in data set [2] (A + B (BEAS-2B + A549)); 2.114 in data set [2] (A + C (BEAS-2B + H1299)). Further, the “VOC level … (AUC) normalized by STD AUC” value in data set [2] (A + D (BEAS-2B + H1975)) is listed as 3.944; in data set [2] (B + C (A549 + H1299)), 0; in data set [2] (B + D (A549 + H1975)) it was 2.036; in data set [2] (C + D (H1299 + H1975)), 1.308.
As to `CCCCC(CC)CO` (centres unmarked) [VOC20], the “VOC level … (AUC) normalized by STD AUC” value in data set [1] (A (BEAS-2B) mono-culture) amounted to 1.669; in data set [1] (B (A549) mono-culture), 2.134; in data set [1] (C (H1299) mono-culture), 0; in data set [1] (D (H1975) mono-culture), 7.035; in data set [2] (A + B (BEAS-2B + A549)), 3.741; in data set [2] (A + C (BEAS-2B + H1299)), 0. Further, the “VOC level … (AUC) normalized by STD AUC” value in data set [2] (A + D (BEAS-2B + H1975)), in data set [2] (B + C (A549 + H1299)), in data set [2] (B + D (A549 + H1975)) and in data set [2] (C + D (H1299 + H1975)) was 0 each time.
Take `Cc1ccc(C=O)cc1` [p-Tolualdehyde]: the “Category (VOC increased or decreased relative to the control)” value is “↑* (↑*: <0.01)” in data set [1] (mono-culture groups (Format-1), 72 h incubation, averaged peak area (n = 3)) and “↑* (↑*: <0.01)” in data set [2] (different-cell pair co-culture headspace (Format-3), 24 h, averaged peak area (n = 3)).
In the case of `CCC(C)(C)CC` [VOC68], the “VOC level … (AUC) normalized by STD AUC” value is recorded as 0 in data set [1] (A (BEAS-2B) mono-culture); 0 in data set [1] (B (A549) mono-culture); 6.6243 in data set [1] (C (H1299) mono-culture); 0 in data set [1] (D (H1975) mono-culture); 0 in data set [2] (A + B (BEAS-2B + A549)); 2.818 in data set [2] (A + C (BEAS-2B + H1299)). Also, the “VOC level … (AUC) normalized by STD AUC” value in data set [2] (A + D (BEAS-2B + H1975)) came out at 0; in data set [2] (B + C (A549 + H1299)), 1.004; in data set [2] (B + D (A549 + H1975)), 0; in data set [2] (C + D (H1299 + H1975)), 1.905.
